From ChEMBL document CHEMBL3988442, “University of Dundee, Small-Polar-MMV Screening Library” (2021).

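Viability assay of Plasmodium falciparum sporozoites; the read-out is not stated. The concentration is filed as 10 mM, unlikely as a test dose, so the dose is not known. Direction is inferred from retests: higher values go with lower viability. Strong results were mostly tested again. About 34,000 compounds were tested under these conditions; 0.84% (about 280) showed 50% or more at least once.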

The filed quantity is “Percent Effect” (%). How 0% and 100% were set is not recorded. Most values in the screen are low, and negative values occur. Compounds were drawn at random from those tested, without regard to their results. Two or more numbers in one place are separate tests of the same structure; such repeats can differ widely.

{"structure": "COc1cc(CNCC(C)O)cc(Cl)c1OCc1ccc(C)cc1.Cl", "stereo": "centres unmarked", "effect": -5.385}
{"structure": "Cc1nc(CN2C(=O)CCC23CCN(Cc2ccco2)CC3)cs1", "effect": -7.005}
{"structure": "CC(NCc1ccc(-c2ccc(Cl)cc2)o1)c1nnc2n1CCC2", "stereo": "centres unmarked", "effect": -2.722}
{"structure": "CC(=O)Nc1ccc(CNc2cccc(OCCF)c2)cc1", "effect": -10.3}
{"structure": "CCc1cc(C(=O)N[C@@H]2CC[C@@H](N3CCOCC3)[C@@H]2O)no1", "effect": 10.01}
{"structure": "O=C(NCCCn1nc2ccccn2c1=O)Nc1ccccc1Cl", "effect": 11.4}
{"structure": "O=C(NCCCOCC1CC1)Nc1cccnc1N1CCOCC1", "effect": -3.608}
{"structure": "N#Cc1ccc(CNCC(C(=O)N2CCOCC2)c2ccccc2)cc1", "stereo": "centres unmarked", "effect": -6.761}
{"structure": "CC(=O)N(C)CC(=O)NCC1CCN(c2cc(Cl)ccc2C)C1", "stereo": "centres unmarked", "effect": 6.415}
{"structure": "Cc1cc(C(=O)N2CCC(O)(Cn3c(C)cc4ccncc43)CC2)on1", "effect": -5.116}
{"structure": "CC(C)(C)OC(=O)N1CCN(C(=O)CCn2cccn2)CC1", "effect": 3.307}
{"structure": "[H][C@@]12CCN(C(C)=O)C[C@@]1([H])[C@H](C(=O)N1CCCCO1)CCO2", "effect": -8.333}
{"structure": "Cc1ccc(CCNC(=O)Cn2nc(C)n(Cc3ccccc3)c2=O)o1", "effect": -12.5}
{"structure": "CC(C)Nc1nc(N2CCCC2)nc2c1CN(S(C)(=O)=O)CC2", "effect": "8.432 & -19.67 & -22.26"}
{"structure": "Cc1noc(C2CCCN(C(=O)c3cncc(Br)c3)C2)n1", "stereo": "centres unmarked", "effect": -6.466}
{"structure": "O=C(O)C(F)(F)F.O=C(O)C(F)(F)F.[H][C@@]12CN(C(=O)c3cccc(C)n3)C[C@]1([H])OCCN2c1ncccn1", "effect": -9.416}
{"structure": "CS(=O)(=O)N1CCC2(CC1)CN(CC1CC1)CC21CCNC1=O.O=C(O)C(F)(F)F", "stereo": "centres unmarked", "effect": 2.737}
{"structure": "COc1cccc(-c2noc(C3CCN(Cc4ccc(C)cc4)C3)n2)c1.Cl", "stereo": "centres unmarked", "effect": "2.794 & -25.1 & -21.68"}
{"structure": "CC(C)N(C)CCNC(=O)N1CCN(Cc2ccon2)CC1", "effect": -18.38}
{"structure": "Cc1ccc(CN2CCCC3(CCCN3S(C)(=O)=O)C2)s1.O=C(O)C(F)(F)F", "stereo": "centres unmarked", "effect": 5.537}
{"structure": "c1cc(C2CN(C3CCCC3)C2)n[nH]1", "effect": 6.539}
{"structure": "O=C(O)C(F)(F)F.O=C1CC[C@]2(CC[C@@H](NC3CCOC3)CC2)N1Cc1ccccc1", "stereo": "some centres unmarked", "effect": 4.79}
{"structure": "Cc1cc(C)c(CNc2ncnc3ccsc23)c(=O)[nH]1", "effect": -10.32}
{"structure": "Cc1ccc(CN(CC(=O)N2CCOC(C)C2)C2CC2)cc1", "stereo": "centres unmarked", "effect": 2.619}
{"structure": "O=c1[nH]c2c(c(=O)n1C1CCCCC1)CCC2NCCc1ccccc1", "stereo": "centres unmarked", "effect": -7.675}
{"structure": "CC(C)Nc1cccc(C(=O)NCC(O)c2ccc(F)cc2F)c1", "stereo": "centres unmarked", "effect": 3.638}
{"structure": "CCC(CC)C(=O)N(C)CC(=O)Nc1ccc(Br)cn1", "effect": 8.741}
{"structure": "O=C(O)C(F)(F)F.O=c1cccnn1CC1CN(Cc2ccsc2)Cc2nccn2C1", "stereo": "centres unmarked", "effect": -8.837}
{"structure": "Cc1ccc(-c2nc(C3CCN(C(=O)c4cnn(C)c4)CC3)no2)cn1", "effect": 5.707}
{"structure": "[H][C@@]12CCCCN(C)[C@]1([H])[C@@H](c1ccccc1)CCN2C(=O)c1ccncc1", "effect": -13.48}
{"structure": "CSc1ncccc1C(=O)N1CCC(c2nc3c(C)cccc3[nH]2)CC1", "effect": -0.2181}
{"structure": "CN1CCN(C)C2(CCN(Cc3ccsc3)CC2)C1=O.O=C(O)C(F)(F)F", "effect": 8.123}
{"structure": "COc1ccnc(N2CCN(CC(=O)N3CCOCC3)CC2)n1", "effect": -1.711}

Repeated from the top, 2 entries:

structure,effect
COc1cc(CNCC(C)O)cc(Cl)c1OCc1ccc(C)cc1.Cl (centres unmarked),-5.385
Cc1nc(CN2C(=O)CCC23CCN(Cc2ccco2)CC3)cs1,-7.005